Results deposited as PubChem BioAssay AID1508588 (Peter MacCallum Cancer Centre, 2020)

- Purpose: 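Genome-wide search for knock-downs that heighten vemurafenib action in melanoma cells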 (primary screen)
- Cells: human WM266.4 melanoma cells (BRAF V600 mutant)
- Knock-down reagent: siRNA pool against human genes, 40 nM
- Time to read-out: 96 h from transfection to read-out
- Treatment: vemurafenib 300 nM (about IC25), added 48 h after transfection, for 48 h; comparison arm got DMSO vehicle only
- Detection: 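Cell gain (DAPI nuclei at end minus before drug, mean of two replicates) and medium lactate by absorbance per cell, both as ratio to non-targeting siRNA, also grouped into fold-change classes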
- Direction: cell gain with vemurafenib: higher = more cell gain than with non-targeting siRNA; lactate per cell with vemurafenib: higher = more lactate made per cell
- Rule for the call: 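a knock-down counts as enhancing when its fold-change classes with vehicle and with vemurafenib, taken together, show a stronger drug effect on cell gain or lactate per cell; exact class pairs not stated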
- Calls: active = enhances vemurafenib effect; inactive = no enhancement seen
In all, the deposit lists about 18,000 reagents; shown is a random part of them. Over the whole deposit, 790 (4.4%) were called active. 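Calls rest on a combination of fold-change classes in drug and vehicle arms, not all shown here.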 Entries without a mark were called inactive. Reagents against one gene are numbered here.

| Target gene | reagent | cell gain with vemurafenib | lactate per cell with vemurafenib |
| --- | --- | --- | --- |
| CFAP300 (cilia and flagella associated protein 300) | 1 | 0.56 | 1.33 |
| EGFL6 (EGF like domain multiple 6) | 1 | 0.02 | 1.58 |
| PARK7 (Parkinsonism associated deglycase) | 1 | 0.25 | 3.08 |
| RTKN (rhotekin) | 1 | 0.18 | 1.66 |
| CCNO (cyclin O) | 1 | 1.06 | 0.7 |
| TIMP1 (TIMP metallopeptidase inhibitor 1) | 1 | 0.52 | 1.46 |
| FGF21 (fibroblast growth factor 21) | 1 | 0.95 | 0.7 |
| NECTIN4 (nectin cell adhesion molecule 4) | 1 | 0.84 | 0.62 |
| PPM1B (protein phosphatase, Mg2+/Mn2+ dependent 1B) | 1 | 0.79 | 0.4 |
| TMEM8B (transmembrane protein 8B) | 1 | 0.43 | 1.93 |
| TXNRD3 (thioredoxin reductase 3) | 1 | 0.77 | 0.56 |
| TXNRD3 (thioredoxin reductase 3) | 2 | 0.71 | 1.26 |
| MTA1 (metastasis associated 1) | 1 | 0.53 | 1 |
| CDC42EP1 (CDC42 effector protein 1) | 1 | 0.23 | 0.72 |
| HDGF (heparin binding growth factor) | 1 | 0.69 | 0.62 |
| GDPD5 (glycerophosphodiester phosphodiesterase domain containing 5) | 1 | 0.24 | 1.12 |
| CCL2 (C-C motif chemokine ligand 2) | 1 | 0.2 (active) | -0.07 |
| EYA4 (EYA transcriptional coactivator and phosphatase 4) | 1 | 0.64 | 0.89 |
| ELL2 (elongation factor for RNA polymerase II 2) | 1 | 0.77 | 0.57 |
| MBLAC1 (metallo-beta-lactamase domain containing 1) | 1 | 1.06 | 0.93 |
| GDPD3 (glycerophosphodiester phosphodiesterase domain containing 3) | 1 | 0.74 | 0.54 |
| INSL5 (insulin like 5) | 1 | 1.55 | 0.34 |
| CSK (C-terminal Src kinase) | 1 | 0.59 | 1.23 |
| DEFB118 (defensin beta 118) | 1 | 0.42 | 0.88 |
| ZNF114 (zinc finger protein 114) | 1 | 0.66 | 0.6 |
| TRIT1 (tRNA isopentenyltransferase 1) | 1 | 0.68 | 1.06 |

Reformatted: entries from further up
Target gene	reagent	cell gain with vemurafenib	lactate per cell with vemurafenib
CDC42EP1 (CDC42 effector protein 1)	1	0.23	0.72
HDGF (heparin binding growth factor)	1	0.69	0.62
GDPD5 (glycerophosphodiester phosphodiesterase domain containing 5)	1	0.24	1.12
CCL2 (C-C motif chemokine ligand 2)	1	0.2 (active)	-0.07
EYA4 (EYA transcriptional coactivator and phosphatase 4)	1	0.64	0.89

Further entries follow.
| Target gene | reagent | cell gain with vemurafenib | lactate per cell with vemurafenib |
| --- | --- | --- | --- |
| RBBP5 | 1 | 0.74 | 0.59 |
| PRRT3 (proline rich transmembrane protein 3) | 1 | 0.44 | 1.55 |
| KLF11 (KLF transcription factor 11) | 1 | 0.46 | 0.84 |
| TMBIM1 (transmembrane BAX inhibitor motif containing 1) | 1 | 0.23 | 1.96 |
| TRHR (thyrotropin releasing hormone receptor) | 1 | -0.13 | 5.23 |
| TUBB2B (tubulin beta 2B class IIb) | 1 | 0.84 | 0.51 |
| AFTPH (aftiphilin) | 1 | 0.63 | 0.7 |
| GPM6A (glycoprotein M6A) | 1 | 0.73 | 0.68 |
| MAP3K7 (mitogen-activated protein kinase kinase kinase 7) | 1 | 0.58 (active) | 0.3 |
| TNS4 (tensin 4) | 1 | 0.59 | 1.19 |
| ZNF32 (zinc finger protein 32) | 1 | 0.41 | 0.9 |
| COMMD7 (COMM domain containing 7) | 1 | 0.36 | 0.99 |
| ZBBX (zinc finger B-box domain containing) | 1 | 0.44 | 1.92 |
| SNX13 (sorting nexin 13) | 1 | 0.35 | 0.6 |
| IGIP (IgA inducing protein) | 1 | 0.33 | 1.76 |
| SYT9 (synaptotagmin 9) | 1 | 0.11 | 1.15 |
| ABHD16B (abhydrolase domain containing 16B) | 1 | 0.16 (active) | 0.12 |
| RBMY1E (RNA binding motif protein Y-linked family 1 member E) | 1 | 1.14 | 0.5 |
| AQP11 (aquaporin 11) | 1 | 0.78 | 0.74 |
| HSD17B3 (hydroxysteroid 17-beta dehydrogenase 3) | 1 | 0.9 | 0.98 |
| USP25 (ubiquitin specific peptidase 25) | 1 | 0.75 | 0.76 |
| PYROXD1 (pyridine nucleotide-disulphide oxidoreductase domain 1) | 1 | 0.86 | 0.66 |
| POFUT3 (protein O-fucosyltransferase 3) | 1 | 0.11 | 0.29 |
| DPF1 (double PHD fingers 1) | 1 | 0.58 | 1.73 |
| PCNX4 (pecanex 4) | 1 | 0.76 | 0.7 |
| TAP1 (transporter 1, ATP binding cassette subfamily B member) | 1 | 0.37 | 0.76 |
| TIGIT (T cell immunoreceptor with Ig and ITIM domains) | 1 | 0.99 | 0.54 |
| PM20D2 (peptidase M20 domain containing 2) | 1 | 0.51 (active) | 0.3 |
| VNN2 (vanin 2) | 1 | 0.74 | 0.83 |
| BDH2 (3-hydroxybutyrate dehydrogenase 2) | 1 | 0.87 | 0.67 |
| TMLHE (trimethyllysine hydroxylase, epsilon) | 1 | 0.86 | 0.99 |
